Source: PubChem BioAssay
Values joined by “and” are separate entries in the source; they are usually repeats but may differ in a detail not shown here. Equal values may be shown once. The list shows a part of the results.

Experiment: P. berghei load reduction in hepatocytes – cell-based, HepG2, luciferase luminescence, HepG2 viability, primary screen (AID 624349);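 also: 100% = mean of DMSO negative control wells on the same plate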
Conditions: P. berghei liver stage in HepG2, luciferase luminescence; measured here: HepG2 viability without parasites; concentration not given here

| SMILES | viability |
| --- | --- |
| C/C1=C2N=C(/C=C3N=C(/C(C)=C4\[N-][C@@](C)([C@@H]5N=C1[C@](C)(CCC(=O)NC[C@@H](C)OP(=O)([O-])O[C@H]1[C@@H](O)[C@@H](n6cnc7cc(C)c(C)cc76)O[C@@H]1CO)[C@H]5CC(N)=O)[C@@](C)(CC(N)=O)[C@@H]4CCC(N)=O)[C@@](C)(CC(N)=O)[C@@H]\3CCC(N)=O)C(C)(C)[C@@H]/2CCC(N)=O.[C-]#N.[Co+3] | 92% and 72.6% |
| NC(=O)Nc1ccc([As](=O)(O)O)cc1 | 102% and 78.4% |
| OCCSCCO | 89.5% |

Experiment: Wnt pathway potentiators raising nuclear beta-catenin – imaging, WNT3A-conditioned medium, mouse C2C12, NPC library, primary screen (AID 1117326); also: reference of the scale not given here
Conditions: at 2 µM, stronger effect = higher value

| SMILES | nuclear beta-catenin stimulation |
| --- | --- |
| CN(C(=O)Cc1ccccc1)[C@H]1CC[C@@]2(CCCO2)C[C@@H]1N1CCCC1 | 3.3% |
| CN(C(=O)Cc1ccc(Cl)c(Cl)c1)[C@H]1CC[C@@]2(CCCO2)C[C@@H]1N1CCCC1 | 0.9% |
| CCOP(=O)(CC)Oc1ccc([N+](=O)[O-])cc1 (stereo not given) | 1.6% |
| C/C1=C2N=C(/C=C3N=C(/C(C)=C4\[N-][C@@](C)([C@@H]5N=C1[C@](C)(CCC(=O)NC[C@@H](C)OP(=O)([O-])O[C@H]1[C@@H](O)[C@@H](n6cnc7cc(C)c(C)cc76)O[C@@H]1CO)[C@H]5CC(N)=O)[C@@](C)(CC(N)=O)[C@@H]4CCC(N)=O)[C@@](C)(CC(N)=O)[C@@H]\3CCC(N)=O)C(C)(C)[C@@H]/2CCC(N)=O.[C-]#N.[Co+3] | 2.8% |
| NC(=O)Nc1ccc([As](=O)(O)O)cc1 | -0.7% |
| O=[N+]([O-])OCC(CO[N+](=O)[O-])(CO[N+](=O)[O-])CO[N+](=O)[O-] | 1.5% |
| OCCSCCO | 4.8% |
